Experimental data as given in patent US8399522B2, “3.2.1-bicyclo-octane compounds” (International Flavors & Fragrances Inc, priority 2010, dated 2013).

Assay: Odor description (fragrance notes)

Structure (SMILES)	odor notes as described
CC1=CCC2(C)CCC1C2 (stereo not drawn) [2,5-Dimethyl-bicyclo[3.2.1]oct-2-ene]	green, terpineol, woody, and black pepper notes
C=CCC1(C)C(=O)CC2(C)CCC1C2 (stereo not drawn) [Structure 3, 4-allyl-1,4-dimethyl-bicyclo[3.2.1]octan-3-one]	amber, fruity, dusty, and musty notes
CC1CC2(C)C3CCC(C)(C3)CC2O1 (stereo not drawn) [Structure 4, 2,4,8-trimethyl-5-oxa-tricyclo [6.2.1.0*2,6*]undecane]	green, earthy, fruity, fresh, and woody notes
CC1C(=O)CC2(C)CCC1C2 (stereo not drawn) [Structure 2, 1,4-dimethyl-bicyclo[3.2.1]octan-3-one]	woody, fresh, minty, and menthol notes
CC12CCC(C1)C1(C)OC1C2 (stereo not drawn) [Structure 1, 2,6-dimethyl-3-oxa-tricyclo[4.2.1.0*2,4*]nonane]	camphor, woody, fresh, sweet, minty, and thujone-like notes
CC1C2CCC(C)(C2)CC12OCCO2 (stereo not drawn) [Structure 5, 1,4-dimethyl-bicyclo[3.2.1]octan-3-dioxolane]	fruity, fresh, and camphor notes
